Data taken from PMC8548262.
Results are given in words; binding and its absence hold for the method and conditions named. Binding seen in cells or lysates may run through a third protein. Here binding means that the protein was enriched with, or labelled near, the bait; the list need not be complete. Blank lines part the entries; values can stand above or below the molecule they belong to.

Amino acid sequences for entries named in this document (tags omitted).
UniProt Q86XN7: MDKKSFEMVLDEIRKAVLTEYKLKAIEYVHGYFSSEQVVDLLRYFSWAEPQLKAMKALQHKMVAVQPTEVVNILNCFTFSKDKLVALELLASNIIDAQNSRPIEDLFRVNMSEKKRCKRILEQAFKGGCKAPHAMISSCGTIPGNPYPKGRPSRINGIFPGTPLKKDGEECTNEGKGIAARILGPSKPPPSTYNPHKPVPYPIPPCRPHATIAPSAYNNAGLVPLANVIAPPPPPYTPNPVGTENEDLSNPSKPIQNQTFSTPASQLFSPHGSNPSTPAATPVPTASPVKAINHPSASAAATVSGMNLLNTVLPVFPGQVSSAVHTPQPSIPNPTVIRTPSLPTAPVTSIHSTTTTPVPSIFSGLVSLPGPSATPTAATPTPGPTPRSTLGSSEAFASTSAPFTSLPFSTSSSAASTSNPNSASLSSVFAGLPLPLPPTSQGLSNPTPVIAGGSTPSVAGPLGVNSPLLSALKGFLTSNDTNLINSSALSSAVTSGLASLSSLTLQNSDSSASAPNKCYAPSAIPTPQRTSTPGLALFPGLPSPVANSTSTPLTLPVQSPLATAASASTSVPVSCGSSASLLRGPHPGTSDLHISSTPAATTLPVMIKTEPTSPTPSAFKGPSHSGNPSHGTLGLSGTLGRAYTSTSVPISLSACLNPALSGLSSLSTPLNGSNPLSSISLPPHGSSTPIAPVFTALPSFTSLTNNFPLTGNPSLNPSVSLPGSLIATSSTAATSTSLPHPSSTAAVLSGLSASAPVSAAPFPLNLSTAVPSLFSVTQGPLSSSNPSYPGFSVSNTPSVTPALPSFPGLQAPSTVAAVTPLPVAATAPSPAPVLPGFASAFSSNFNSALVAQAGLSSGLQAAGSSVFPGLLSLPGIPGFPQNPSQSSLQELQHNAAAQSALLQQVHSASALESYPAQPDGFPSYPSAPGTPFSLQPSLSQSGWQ
UniProt O15550: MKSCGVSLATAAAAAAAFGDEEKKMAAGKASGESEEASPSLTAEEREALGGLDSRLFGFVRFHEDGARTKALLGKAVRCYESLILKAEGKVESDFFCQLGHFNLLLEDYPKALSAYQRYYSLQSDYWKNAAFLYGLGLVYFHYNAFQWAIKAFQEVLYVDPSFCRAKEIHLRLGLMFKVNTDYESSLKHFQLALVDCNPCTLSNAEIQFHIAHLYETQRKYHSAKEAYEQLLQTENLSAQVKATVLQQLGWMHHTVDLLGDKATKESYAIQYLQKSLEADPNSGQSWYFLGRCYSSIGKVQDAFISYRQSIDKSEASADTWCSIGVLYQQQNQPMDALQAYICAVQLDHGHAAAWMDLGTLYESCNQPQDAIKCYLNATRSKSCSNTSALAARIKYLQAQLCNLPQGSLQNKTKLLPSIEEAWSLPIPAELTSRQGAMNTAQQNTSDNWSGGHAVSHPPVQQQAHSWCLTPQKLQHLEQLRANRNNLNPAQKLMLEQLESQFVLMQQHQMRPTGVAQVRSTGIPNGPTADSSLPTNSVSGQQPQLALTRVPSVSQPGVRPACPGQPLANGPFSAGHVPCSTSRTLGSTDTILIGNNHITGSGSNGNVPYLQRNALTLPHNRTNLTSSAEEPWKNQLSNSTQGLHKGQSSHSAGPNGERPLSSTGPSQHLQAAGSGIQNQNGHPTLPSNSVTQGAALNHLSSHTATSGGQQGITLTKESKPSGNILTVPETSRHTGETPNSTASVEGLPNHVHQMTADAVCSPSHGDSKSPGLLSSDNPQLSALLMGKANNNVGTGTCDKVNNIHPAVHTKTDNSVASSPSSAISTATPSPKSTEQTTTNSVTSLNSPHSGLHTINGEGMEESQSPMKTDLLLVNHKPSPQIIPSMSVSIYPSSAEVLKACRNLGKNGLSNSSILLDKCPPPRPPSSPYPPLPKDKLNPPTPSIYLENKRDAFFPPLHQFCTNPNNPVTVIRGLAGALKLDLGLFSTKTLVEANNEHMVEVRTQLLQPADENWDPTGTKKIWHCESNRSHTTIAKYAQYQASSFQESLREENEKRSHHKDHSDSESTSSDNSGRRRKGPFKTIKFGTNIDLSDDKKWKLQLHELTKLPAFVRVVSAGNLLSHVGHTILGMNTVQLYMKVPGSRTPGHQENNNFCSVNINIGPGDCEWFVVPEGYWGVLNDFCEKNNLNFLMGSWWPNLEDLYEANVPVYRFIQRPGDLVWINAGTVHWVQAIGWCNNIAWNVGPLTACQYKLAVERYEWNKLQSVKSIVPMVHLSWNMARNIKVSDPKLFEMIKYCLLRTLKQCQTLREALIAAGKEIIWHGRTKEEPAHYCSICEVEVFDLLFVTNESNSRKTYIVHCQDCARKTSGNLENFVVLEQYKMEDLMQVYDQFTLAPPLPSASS
UniProt O43151: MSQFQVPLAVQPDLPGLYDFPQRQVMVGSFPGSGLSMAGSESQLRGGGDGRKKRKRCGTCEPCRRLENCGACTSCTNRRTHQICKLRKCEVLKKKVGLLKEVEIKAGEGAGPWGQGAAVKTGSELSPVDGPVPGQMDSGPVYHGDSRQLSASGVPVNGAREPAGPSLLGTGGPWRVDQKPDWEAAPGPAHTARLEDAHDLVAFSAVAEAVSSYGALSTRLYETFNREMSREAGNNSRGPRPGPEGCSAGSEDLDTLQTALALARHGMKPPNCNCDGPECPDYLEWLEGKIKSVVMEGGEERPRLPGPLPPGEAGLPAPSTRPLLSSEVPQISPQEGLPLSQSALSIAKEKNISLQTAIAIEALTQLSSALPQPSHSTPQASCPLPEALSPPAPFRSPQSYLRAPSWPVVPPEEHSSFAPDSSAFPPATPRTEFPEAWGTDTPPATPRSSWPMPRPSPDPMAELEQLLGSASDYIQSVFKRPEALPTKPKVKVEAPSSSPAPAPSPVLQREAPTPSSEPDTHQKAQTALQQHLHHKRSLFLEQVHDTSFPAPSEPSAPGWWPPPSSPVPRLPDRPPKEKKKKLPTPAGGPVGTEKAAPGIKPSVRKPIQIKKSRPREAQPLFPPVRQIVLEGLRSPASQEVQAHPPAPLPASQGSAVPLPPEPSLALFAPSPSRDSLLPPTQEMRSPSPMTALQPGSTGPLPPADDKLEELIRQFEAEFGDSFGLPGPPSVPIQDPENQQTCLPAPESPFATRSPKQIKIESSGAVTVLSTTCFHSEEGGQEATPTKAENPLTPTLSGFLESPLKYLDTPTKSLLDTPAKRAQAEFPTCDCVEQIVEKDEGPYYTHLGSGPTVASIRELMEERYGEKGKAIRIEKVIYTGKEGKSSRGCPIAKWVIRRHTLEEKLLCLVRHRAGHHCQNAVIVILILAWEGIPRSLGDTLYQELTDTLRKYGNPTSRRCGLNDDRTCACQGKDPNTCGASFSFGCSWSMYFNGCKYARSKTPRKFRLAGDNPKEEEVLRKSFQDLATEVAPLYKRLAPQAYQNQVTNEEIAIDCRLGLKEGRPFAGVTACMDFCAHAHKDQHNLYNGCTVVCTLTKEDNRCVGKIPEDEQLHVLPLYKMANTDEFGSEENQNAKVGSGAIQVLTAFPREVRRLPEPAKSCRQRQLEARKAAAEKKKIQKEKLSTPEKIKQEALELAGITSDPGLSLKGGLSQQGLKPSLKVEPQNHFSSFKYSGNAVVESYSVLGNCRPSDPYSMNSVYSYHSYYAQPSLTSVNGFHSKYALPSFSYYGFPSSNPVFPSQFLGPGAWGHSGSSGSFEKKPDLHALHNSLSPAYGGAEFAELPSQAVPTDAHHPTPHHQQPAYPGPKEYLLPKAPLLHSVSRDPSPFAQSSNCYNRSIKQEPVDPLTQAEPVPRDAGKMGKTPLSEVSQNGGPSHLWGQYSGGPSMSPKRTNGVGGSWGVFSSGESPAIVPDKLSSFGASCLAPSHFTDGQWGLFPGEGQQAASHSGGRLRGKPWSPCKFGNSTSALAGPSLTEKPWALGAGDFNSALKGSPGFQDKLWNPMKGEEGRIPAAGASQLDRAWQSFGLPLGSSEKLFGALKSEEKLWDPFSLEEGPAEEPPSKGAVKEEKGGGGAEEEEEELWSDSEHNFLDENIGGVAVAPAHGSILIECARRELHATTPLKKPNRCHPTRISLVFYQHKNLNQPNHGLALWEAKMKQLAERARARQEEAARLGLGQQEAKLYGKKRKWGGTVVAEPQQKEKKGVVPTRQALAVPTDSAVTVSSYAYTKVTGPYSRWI

Legend:
FLAG-PROSER1 = FLAG-PROSER1 (UniProt Q86XN7); assay: affinity purification with mass spectrometry; overexpressed FLAG-PROSER1 purified by FLAG IP from HEK293 cells, mass spectrometry
FLAG-UTX = FLAG-UTX (UniProt O15550); assay: affinity purification with mass spectrometry; FLAG-UTX purified by FLAG IP from HEK293 cells, mass spectrometry of the eluate

- binding (FLAG-PROSER1): binds
Molecule: TET3 (from UniProt O43151 1-1795)

- binding (FLAG-UTX): binds
- binding (FLAG-PROSER1): binds
B1: OGT (enzyme, UniProt O15294 1-1046)
chain: MASSVGNVADSTEPTKRMLSFQGLAELAHREYQAGDFEAAERHCMQLWRQEPDNTGVLLLLSSIHFQCRRLDRSAHFSTLAIKQNPLLAEAYSNLGNVYKERGQLQEAIEHYRHALRLKPDFIDGYINLAAALVAAGDMEGAVQAYVSALQYNPDLYCVRSDLGNLLKALGRLEEAKACYLKAIETQPNFAVAWSNLGCVFNAQGEIWLAIHHFEKAVTLDPNFLDAYINLGNVLKEARIFDRAVAAYLRALSLSPNHAVVHGNLACVYYEQGLIDLAIDTYRRAIELQPHFPDAYCNLANALKEKGSVAEAEDCYNTALRLCPTHADSLNNLANIKREQGNIEEAVRLYRKALEVFPEFAAAHSNLASVLQQQGKLQEALMHYKEAIRISPTFADAYSNMGNTLKEMQDVQGALQCYTRAIQINPAFADAHSNLASIHKDSGNIPEAIASYRTALKLKPDFPDAYCNLAHCLQIVCDWTDYDERMKKLVSIVADQLEKNRLPSVHPHHSMLYPLSHGFRKAIAERHGNLCLDKINVLHKPPYEHPKDLKLSDGRLRVGYVSSDFGNHPTSHLMQSIPGMHNPDKFEVFCYALSPDDGTNFRVKVMAEANHFIDLSQIPCNGKAADRIHQDGIHILVNMNGYTKGARNELFALRPAPIQAMWLGYPGTSGALFMDYIITDQETSPAEVAEQYSEKLAYMPHTFFIGDHANMFPHLKKKAVIDFKSNGHIYDNRIVLNGIDLKAFLDSLPDVKIVKMKCPDGGDNADSSNTALNMPVIPMNTIAEAVIEMINRGQIQITINGFSISNGLATTQINNKAATGEEVPRTIIVTTRSQYGLPEDAIVYCNFNQLYKIDPSTLQMWANILKRVPNSVLWLLRFPAVGEPNIQQYAQNMGLPQNRIIFSPVAPKEEHVRRGQLADVCLDTPLCNGHTTGMDVLWAGTPMVTMPGETLASRVAASQLTCLGCLELIAKNRQEYEDIAVKLGTDLEYLKKVRGKVWKQRISSPLFNTKQYTMELERLYLQMWEHYAAGNKPDHMIKPVEVTESA
